This passage reports binding results from PMC13379044.

By UniProt entry, the sequences of proteins in these tests, tags left out.
UniProt Q13547: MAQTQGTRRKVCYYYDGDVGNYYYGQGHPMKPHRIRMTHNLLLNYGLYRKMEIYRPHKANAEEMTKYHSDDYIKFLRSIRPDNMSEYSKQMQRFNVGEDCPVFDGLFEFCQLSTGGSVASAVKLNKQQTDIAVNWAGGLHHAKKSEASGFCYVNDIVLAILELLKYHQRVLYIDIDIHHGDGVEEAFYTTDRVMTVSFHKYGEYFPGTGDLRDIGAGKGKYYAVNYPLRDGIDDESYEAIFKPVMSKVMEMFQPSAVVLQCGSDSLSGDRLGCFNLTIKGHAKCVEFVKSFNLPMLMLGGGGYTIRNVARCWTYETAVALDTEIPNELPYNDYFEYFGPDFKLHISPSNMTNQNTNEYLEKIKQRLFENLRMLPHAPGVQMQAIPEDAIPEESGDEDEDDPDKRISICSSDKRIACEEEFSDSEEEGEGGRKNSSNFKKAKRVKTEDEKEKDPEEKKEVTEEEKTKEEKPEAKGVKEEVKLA

For this assay, the target named is Histone deacetylase 1 (human (endogenous in B lymphocytes of patients)) (UniProt Q13547). Briefly: co-IP; B lymphocyte lysate; anti-HDAC1 antibody as the bait (normal rabbit IgG as control), overnight at 4°C, agarose beads; western blot with anti-HDAC1 and anti-IRF1. For orientation: In western blotting, separated proteins are transferred to a membrane and probed.

No constants are given. Whether binding was seen depends on the method and setting. In cells and extracts the contact can be indirect. Some results given as binding are weak or reduced against the parent protein; the word gives no strength.

B1: Interferon regulatory factor 1 (protein, UniProt P10914 1-325)
chain: MPITRMRMRPWLEMQINSNQIPGLIWINKEEMIFQIPWKHAAKHGWDINKDACLFRSWAIHTGRYKAGEKEPDPKTWKANFRCAMNSLPDIEEVKDQSRNKGSSAVRVYRMLPPLTKNQRKERKSKSSRDAKSKAKRKSCGDSSPDTFSDGLSSSTLPDDHSSYTVPGYMQDLEVEQALTPALSPCAVSSTLPDWHIPVEVVPDSTSDLYNFQVSPMPSTSEATTDEDEEGKLPEDIMKLLEQSEWQPTNVDGKGYLLNEPGVQPTSVYGDFSCKEEPEIDSPGGDIGLSLQRVFTDLKNMDATWLDSLLTPVRLPSIQAIPCAP
B1: the binding entry was “binds”.
